Results taken from PubChem BioAssay AID504834 (National Center for Advancing Translational Sciences (NCATS), 2011).
The campaign covered roughly 320,000 compounds. About 22,000 (6.9%) were called active. The inconclusive results got no clear call from the source; some entries with a clear call stand among them for comparison. Calls come from the whole dose curve; as a rule, active = well fitted inhibition curve with a large enough effect; inconclusive = small, poorly fitted or top-dose-only effect, or another doubt; inactive = no such curve, though single readings can be large or run the other way. Where the call is inconclusive, the potency comes from a doubtful curve fit.

assay: Primary qHTS for delayed death inhibitors of the malarial parasite plastid, 96 hour incubation; conditions: P. falciparum luciferase reporter growth; series mostly up to 28.7 µM
In short: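 Infected RBCs, 2% Hct / 0.05% parasitemia final; luciferase-reporter P. falciparum; cpd 96 h, 37 C, 5% CO2; luciferase detection reagent; luminescence.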
Potency is the fitted concentration of half-maximal effect.

Structure (SMILES)	Potency
Cc1cc(C)n(CCNC(=O)CC2C(=O)NCCN2Cc2ccc(C)o2)n1 (stereo not drawn)	inconclusive: 1.31 µM [inhibitor, partial curve, poor fit]
COc1ccc(-c2csc(NC(=O)c3ccco3)n2)cc1	inactive
CCN1CCN(c2nc(Nc3cccc(OC)c3)nc(N)c2[N+](=O)[O-])CC1	inconclusive: 16.5 µM [inhibitor, single point]
COc1ccccc1CCn1cnc2c3cc(C)ccc3n(C)c2c1=O	inconclusive: 14.7 µM [inhibitor, single point]
O=C(COc1ccc(Cl)cc1Cl)Nc1ccc(C(=O)Nc2ccccc2C(=O)O)cc1	inconclusive: 16.5 µM [inhibitor, partial curve, poor fit]
CC(C)c1ccc(S(=O)(=O)N2CCN(C(=O)C3CCN(C(=O)c4ccc(F)cc4)CC3)CC2)cc1	inconclusive: 9.28 µM [inhibitor, partial curve, poor fit]
Cc1cc(C)c(C(=O)CSc2n[nH]c(-c3ccncc3)n2)c(C)c1	inactive
CCCOc1ccc(Cc2nn[nH]n2)cc1	inconclusive: 6.57 µM [inhibitor, partial curve]
Cc1ccc(S(=O)(=O)Nc2cc3c4c(c2)CC(=O)N4CCC3)cc1	inactive
COC(=O)c1cn(NC(=O)COc2ccc(Cl)cc2)c(=O)c2ccccc12	inconclusive: 10.4 µM [inhibitor, single point]
C/C(=N\NC(=O)c1ccncc1)c1cccs1	inconclusive: 18.5 µM [inhibitor, single point]
CCCCc1cc(=O)oc2c(C)c(OCC(=O)N3CCC(C(=O)O)(c4ccccc4)CC3)ccc12	inconclusive: 18.5 µM [inhibitor, single point]
NCCCC[C@H]1CNC(=O)C(=O)N1CCc1cccc2ccccc12	inactive
CC(=O)O[C@@]12CO[C@@H]1C[C@@H](O)[C@@]1(C)C(=O)[C@H](O)C3=C(C)[C@@H](OC(=O)[C@H](O)[C@@H](NC(=O)c4ccccc4)c4ccccc4)C[C@@](O)([C@@H](OC(=O)c4ccccc4)C12)C3(C)C (stereo partly drawn)	active: 0.0465 µM
COc1ccc(-n2nc(C(=O)NCC(=O)NCc3ccc(F)cc3)c3ccccc3c2=O)cc1	active: 6.57 µM
O=S(Cc1ccccc1)CC(O)(c1ccc(Cl)cc1)c1ccc(Cl)cc1 (stereo not drawn)	inconclusive: 8.28 µM [inhibitor, single point]
O=C(/C=C/c1cccs1)N1CCN(c2ccc(O)cc2)CC1	inconclusive: 10.4 µM [inhibitor, single point]
COc1cc2c(cc1OC)-c1cc(Nc3cccc(F)c3)nc(=O)n1CC2	active: 4.15 µM
COc1ccc(/C=C/C(=O)NC(=S)N2C[C@H]3C[C@H](C2)c2cccc(=O)n2C3)cc1	inconclusive: 18.5 µM [inhibitor, single point]
Oc1ccccc1N1CCN(CC(O)COC2CCCc3ccccc32)CC1 (stereo not drawn)	inconclusive: 16.5 µM [inhibitor, single point]
COc1ccc(-c2csc(C)n2)cc1	inconclusive: 10.4 µM [inhibitor, single point]
Cc1ccc2c(c1)N(CC(=O)N1CCCCC1)C(=O)C(C)O2 (stereo not drawn)	active: 9.28 µM
COc1ccc(CO[C@@H]2O[C@H](CO)[C@@H](O)[C@H](O)[C@H]2NC(C)=O)cc1OC	inactive

Structure (SMILES)	Potency
COC(=O)C1=C(c2cccc(OCc3ccccc3)c2)C[C@@H]2CC[C@H]1N2C(=O)NCc1ccc([N+](=O)[O-])cc1	inconclusive: 13.1 µM [inhibitor, partial curve, poor fit]
COCCN(C(=O)CSc1nnc(C)n1Cc1ccccc1)c1c(N)n(Cc2ccccc2)c(=O)[nH]c1=O	inactive
COc1ccc(-c2cc(=O)oc3cc(OCC(C)=O)ccc23)cc1	inactive
O=C(NC1CCCCC1)N1CCCCCC1	inactive
O=[N+]([O-])c1ccc2c(c1)ncn2CCc1ccccc1	active: 0.522 µM
Cn1c(=O)c2sccc2n2c(CCCC(=O)N3CCN(c4ccccn4)CC3)nnc12	active: 9.28 µM
CC1=CC(C)(C)NC(=S)N1c1ccc(C)cc1C	inconclusive: 10.4 µM [inhibitor, single point]
O=C(COC(=O)c1ccc2c(=O)n3c(nc2c1)CCC3)NC1CCS(=O)(=O)C1 (stereo not drawn)	inactive
CCc1cccc(NC(=O)CSc2nnc(Cc3ccc(OC)cc3)c(=O)[nH]2)c1	inconclusive: 0.0041 µM [inhibitor, full curve, poor fit]
CNC[C@@H](Cc1ccccc1)NC[C@@H](CC1CCCCC1)NCCCc1ccccc1	inconclusive: 1.65 µM [inhibitor, partial curve, poor fit]
O=C1NC(c2ccccc2)=C(c2nc3ccccc3s2)C(c2ccccc2)N1 (stereo not drawn)	active: 8.28 µM
COc1ccc(-n2cc(-c3ccccc3)c3c(=O)[nH]cnc32)cc1	active: 10.4 µM
NC(=S)NNc1ccnc2cc(Cl)ccc12	inconclusive: 1.65 µM [inhibitor, full curve, poor fit]
O=C(C[C@H]1C(=O)N(Cc2ccccc2)C[C@@H]1Cc1ccccc1)Nc1ccccc1	active: 13.1 µM
CN(C(=O)c1cc2c(s1)-c1ccccc1S(=O)(=O)C2)c1ccccc1	inconclusive: 18.5 µM [inhibitor, single point]
CC(C)C(Sc1nc(-c2ccccc2)cc(-c2ccccc2)c1C#N)C(=O)O (stereo not drawn)	inconclusive: 1.17 µM [inhibitor, partial curve, poor fit]
O=C1N=C(N2CCOCC2)SC1=C1CCCCC1	inconclusive: 5.86 µM [inhibitor, partial curve, poor fit]
Cc1cccc(-c2nc(CN3CCCC(C(=O)NC4CCCC4)C3)c(C)o2)c1 (stereo not drawn)	inactive
Cc1nn(Cc2c(Cl)cccc2Cl)c(C)c1NC(=O)/C=C/c1cnn(C)c1C	inactive
Cc1ccc(C(C(=O)NC2CCCCC2)N(CC2CCCO2)C(=O)CNC(=O)c2ccco2)cc1 (stereo not drawn)	inconclusive: 11.7 µM [inhibitor, single point]
COc1cccc(NC(=O)CN(C)C(=O)c2cc3c(s2)CCCC3)c1	inactive
Clc1cc(Cl)c(OCC#CI)cc1Cl	active: 13.5 µM
COC(=O)C(CCSC)NC(=O)c1cc2c(n(-c3ccc(C)cc3)c1=O)CCCC2=O (stereo not drawn)	inconclusive: 4.15 µM [inhibitor, partial curve]

Pulled by structure from the entries so far, three records:
Structure (SMILES)	Potency
Clc1cc(Cl)c(OCC#CI)cc1Cl	active: 13.5 µM
COC(=O)C(CCSC)NC(=O)c1cc2c(n(-c3ccc(C)cc3)c1=O)CCCC2=O (stereo not drawn)	inconclusive: 4.15 µM [inhibitor, partial curve]
CN(C(=O)c1cc2c(s1)-c1ccccc1S(=O)(=O)C2)c1ccccc1	inconclusive: 18.5 µM [inhibitor, single point]

Going on with the list.

Structure (SMILES)	Potency
CC(C)c1nnc(NC(=O)CCC(=O)NCCc2ccccc2)s1	inactive
Cc1sc2ncnc(N3CCC(C(=O)NNC(=O)COc4ccccc4Cl)CC3)c2c1C	inconclusive: 5.86 µM [inhibitor, partial curve, poor fit]
Nc1nonc1C(=O)N/N=C/c1ccc([N+](=O)[O-])o1	inconclusive: 10.4 µM [inhibitor, single point]
COc1ccc2c(CC(=O)OCC(=O)NC(=O)c3cccn3C)coc2c1	inactive
CN(CC(=O)Nc1ccccc1Cl)C(=O)CSc1nc2ccccc2s1	inconclusive: 18.5 µM [inhibitor, single point]
COc1ccc(N(C(C)C(=O)N/N=C/c2ccc(OC(C)C)cc2)S(C)(=O)=O)cc1 (stereo not drawn)	inactive
COc1ccccc1NC(=O)C1=C(C)NC(SCC(=O)Nc2ccc(C(=O)O)cc2)=C(C#N)C1c1cccs1 (stereo not drawn)	inconclusive: 10.4 µM [inhibitor, partial curve, poor fit]
Cc1cc2c(cc1S(=O)(=O)CCC(=O)Nc1cccc(C(F)(F)F)c1)OCC(=O)N2	inconclusive: 7.38 µM [inhibitor, partial curve]
O=C(Nc1ccccc1)Nc1ccc(Cl)c(S(=O)(=O)N2CCOCC2)c1	inconclusive: 13.1 µM [inhibitor, single point]
CC1Cc2ccccc2N1C(=O)C1CCCCN1S(=O)(=O)c1ccccc1 (stereo not drawn)	inconclusive: 10.4 µM [inhibitor, partial curve]
Fc1ccc(-c2nc3ccncc3[nH]2)cc1	inconclusive: 18.5 µM [inhibitor, single point]
COc1cccc(-c2cc(C(=O)N3CCN(C(=O)c4ccco4)CC3)on2)c1	inconclusive: 11.7 µM [inhibitor, single point]
Cc1cc(C)n(-c2ccc(Cl)c(C(=O)Nc3ccc(OC(F)(F)F)cc3)n2)n1	inactive
O=C(Nc1nc2ccccc2s1)C1CC(=O)N(c2ccc(F)cc2)C1 (stereo not drawn)	inactive
CCOC(=O)c1sc2nccc(N(C)C)c2c1N=CNOCc1c(F)cccc1Cl	inconclusive: 11.7 µM [inhibitor, single point]
CC(=O)Nc1ccc(S(=O)(=O)c2c(N)n(CCN3CCOCC3)c3nc4ccccc4nc23)cc1	inactive
NC(=O)[C@H](Cc1cc2ccccc2s1)NC(=O)[C@@H]1CC2(CC(c3cccc(NC(=O)[C@@H]4CCC(=O)N4)c3)=NO2)CN1C(=O)/C=C/c1c(F)cccc1Cl (stereo partly drawn)	active: 2.94 µM
COc1ccc(-c2ccc(-c3noc(C)n3)c(OC)n2)cc1	inconclusive: 11.7 µM [inhibitor, single point]
CCC(C)(C)n1nnnc1C(c1cc(OC)ccc1OC)N1CCC(C(N)=O)CC1 (stereo not drawn)	inconclusive: 18.5 µM [inhibitor, single point]
NC(=O)c1ccccc1NC(=O)CC12CC3CC(CC(C3)C1)C2	active: 9.28 µM
Cc1cccc(C(=O)N/N=C/c2ccoc2)c1	inactive
Cc1cc(F)ccc1NC(=O)c1cc(S(=O)(=O)N2CCOCC2)cn1C	inconclusive: 10.4 µM [inhibitor, single point]

Reformatted in CSV form: entries from further up.
Structure (SMILES),Potency
NC(=O)c1ccccc1NC(=O)CC12CC3CC(CC(C3)C1)C2,active: 9.28 µM
Cc1cccc(C(=O)N/N=C/c2ccoc2)c1,inactive
